In paper doi:10.1101/2024.07.03.601867:
These are yes or no findings as the source states them, for the method shown. In cells and extracts the contact can be indirect. Some binding calls cover weakened binding; strength is not graded here.

Chains of the proteins cited; added tags and fusions are not shown. Residues count along the entry.
UniProt P25106: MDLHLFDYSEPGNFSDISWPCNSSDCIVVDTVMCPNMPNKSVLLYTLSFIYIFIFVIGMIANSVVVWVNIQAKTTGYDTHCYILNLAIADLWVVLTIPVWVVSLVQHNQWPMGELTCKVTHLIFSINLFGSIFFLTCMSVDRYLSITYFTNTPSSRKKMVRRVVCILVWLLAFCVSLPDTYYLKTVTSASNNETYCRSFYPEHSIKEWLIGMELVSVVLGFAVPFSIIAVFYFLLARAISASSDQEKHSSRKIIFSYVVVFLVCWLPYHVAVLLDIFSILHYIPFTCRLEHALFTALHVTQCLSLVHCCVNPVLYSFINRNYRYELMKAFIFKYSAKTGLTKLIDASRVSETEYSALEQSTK
UniProt P40224, residues 22-93: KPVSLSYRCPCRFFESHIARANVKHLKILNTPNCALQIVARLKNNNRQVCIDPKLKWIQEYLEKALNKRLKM

Target: Flag-Human CXCR7(ACKR3)-Tango (human) (UniProt P25106)
Assay: pull-down

C-X-C motif chemokine 12 (Cxcl12) at the synaptosome surface (from UniProt P40224 22-93) (ligand)
binding: binds
